The results in this text go back to PMC3072412.

The chains behind the UniProt entries cited, without tags or fusion partners.
UniProt P35222: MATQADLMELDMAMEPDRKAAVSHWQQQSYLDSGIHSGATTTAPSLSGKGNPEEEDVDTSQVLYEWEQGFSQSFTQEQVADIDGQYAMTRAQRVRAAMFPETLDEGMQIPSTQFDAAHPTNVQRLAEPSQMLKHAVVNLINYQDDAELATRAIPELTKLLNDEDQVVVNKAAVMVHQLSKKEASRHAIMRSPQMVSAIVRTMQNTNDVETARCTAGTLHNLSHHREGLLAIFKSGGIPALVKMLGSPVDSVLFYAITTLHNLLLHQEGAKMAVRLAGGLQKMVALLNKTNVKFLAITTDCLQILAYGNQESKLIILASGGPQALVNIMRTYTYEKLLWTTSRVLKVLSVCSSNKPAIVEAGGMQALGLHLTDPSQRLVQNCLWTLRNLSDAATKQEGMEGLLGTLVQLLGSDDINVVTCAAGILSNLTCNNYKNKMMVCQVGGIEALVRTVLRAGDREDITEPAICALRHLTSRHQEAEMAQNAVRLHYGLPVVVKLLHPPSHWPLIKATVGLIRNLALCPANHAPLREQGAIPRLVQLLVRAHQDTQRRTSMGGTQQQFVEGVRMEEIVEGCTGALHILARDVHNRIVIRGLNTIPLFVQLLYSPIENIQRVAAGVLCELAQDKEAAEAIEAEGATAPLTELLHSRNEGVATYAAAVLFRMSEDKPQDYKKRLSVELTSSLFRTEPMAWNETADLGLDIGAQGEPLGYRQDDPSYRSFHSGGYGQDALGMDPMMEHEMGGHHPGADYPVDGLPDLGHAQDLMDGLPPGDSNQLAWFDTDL

Numbering of substitutions follows the chain as printed. Names and notes keep the numbering of the source. Results are given in words; binding and its absence hold for the method and conditions named. In cells and extracts the contact can be indirect. Some entries that bind do so weakly or less than the wild type. Sequences can lack the tags named with a protein.

In assay [1] the target is T1, 3XFlag-Nkd1 (human Nkd1, wild type) (human) (UniProt Q969G9).
T1 sequence: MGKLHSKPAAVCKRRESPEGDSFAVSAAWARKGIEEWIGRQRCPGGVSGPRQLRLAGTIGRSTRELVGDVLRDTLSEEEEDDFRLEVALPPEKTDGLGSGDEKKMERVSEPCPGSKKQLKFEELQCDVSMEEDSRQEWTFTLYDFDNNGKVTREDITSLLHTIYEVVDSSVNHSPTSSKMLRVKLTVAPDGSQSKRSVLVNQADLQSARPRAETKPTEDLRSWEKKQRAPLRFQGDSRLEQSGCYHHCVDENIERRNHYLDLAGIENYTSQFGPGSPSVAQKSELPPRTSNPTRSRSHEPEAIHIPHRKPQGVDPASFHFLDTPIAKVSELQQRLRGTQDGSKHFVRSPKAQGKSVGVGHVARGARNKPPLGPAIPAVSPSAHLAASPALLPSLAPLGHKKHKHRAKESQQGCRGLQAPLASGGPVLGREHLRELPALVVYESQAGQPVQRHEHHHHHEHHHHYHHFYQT
Put plainly: co-IP; LUMIER assay in HEK293T cells: luciferase-tagged β-catenin or Dvl2 with 3XFlag-Nkd1 constructs; anti-Flag immunoprecipitation of cell lysates, luciferase activity of the immunoprecipitate.

Assay [2] addresses T2, Nkd1^myc (zebrafish Naked Cuticle homolog 1, C-terminal myc tag) (zebrafish) (UniProt Q2TJA6).
T2 sequence: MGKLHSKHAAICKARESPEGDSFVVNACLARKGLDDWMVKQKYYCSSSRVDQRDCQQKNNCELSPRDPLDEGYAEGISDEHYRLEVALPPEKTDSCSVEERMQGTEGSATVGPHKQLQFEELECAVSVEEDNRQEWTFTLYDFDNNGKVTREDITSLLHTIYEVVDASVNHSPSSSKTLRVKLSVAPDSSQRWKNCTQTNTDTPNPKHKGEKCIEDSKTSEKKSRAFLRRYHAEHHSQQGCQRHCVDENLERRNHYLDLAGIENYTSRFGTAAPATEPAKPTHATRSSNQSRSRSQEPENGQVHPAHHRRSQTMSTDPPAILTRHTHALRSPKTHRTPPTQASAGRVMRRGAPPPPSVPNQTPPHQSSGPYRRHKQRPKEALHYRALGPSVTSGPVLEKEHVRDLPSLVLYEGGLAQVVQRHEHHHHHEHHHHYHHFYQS
Kind of assay: co-IP; competition: nkd1^myc co-injected with increasing doses of dsh^HA (0pg, 125pg and 250pg) into zebrafish embryos, harvested at dome stage, immunoprecipitated with anti-myc and western blotted with anti-β-catenin. (Immunoblotting shows a protein as a band on a membrane.)

For assay [3], the target named is T2, Nkd1^myc (zebrafish Naked Cuticle homolog 1, C-terminal myc tag) (zebrafish). Kind of assay: co-IP; lysates of zebrafish embryos injected with nkd1^myc or nkd1^G2A-myc RNA, with or without wnt8 RNA, harvested at dome stage (4.3 hpf); modified Rubenfelds buffer with 0.3% NP-40; immunoprecipitation with anti-zDvl2, anti-myc or anti-β-catenin, western blot.
For assay [4], the target named is T3, β-catenin (endogenous zebrafish) (zebrafish (endogenous in zebrafish embryos)) (UniProt F1QGH7).
T3 sequence: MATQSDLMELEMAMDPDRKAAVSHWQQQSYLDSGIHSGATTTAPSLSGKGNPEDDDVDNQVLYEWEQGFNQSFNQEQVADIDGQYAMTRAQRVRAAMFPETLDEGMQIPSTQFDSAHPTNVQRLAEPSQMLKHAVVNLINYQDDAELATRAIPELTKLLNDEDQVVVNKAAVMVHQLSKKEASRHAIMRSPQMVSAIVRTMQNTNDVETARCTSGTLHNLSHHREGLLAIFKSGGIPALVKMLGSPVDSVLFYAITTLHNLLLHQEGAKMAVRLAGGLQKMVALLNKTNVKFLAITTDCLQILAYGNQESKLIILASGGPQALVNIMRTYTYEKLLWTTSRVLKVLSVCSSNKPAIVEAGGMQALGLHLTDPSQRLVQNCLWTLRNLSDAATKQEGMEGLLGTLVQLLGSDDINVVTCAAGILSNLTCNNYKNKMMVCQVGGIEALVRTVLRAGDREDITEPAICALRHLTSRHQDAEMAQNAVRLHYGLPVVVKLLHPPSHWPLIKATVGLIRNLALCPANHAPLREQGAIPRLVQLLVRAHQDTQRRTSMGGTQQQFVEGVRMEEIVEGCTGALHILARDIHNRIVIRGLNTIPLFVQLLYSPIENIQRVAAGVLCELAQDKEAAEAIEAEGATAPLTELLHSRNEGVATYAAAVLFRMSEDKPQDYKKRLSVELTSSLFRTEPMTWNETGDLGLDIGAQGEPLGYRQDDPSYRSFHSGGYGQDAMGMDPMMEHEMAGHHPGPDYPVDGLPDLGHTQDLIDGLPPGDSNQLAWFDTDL
Described as above.

In the case of “luciferase-tagged β-catenin (β-catenin-Lux) (from UniProt P35222 1-781)”, the binding entry in assay [1] is reported as “binds”.

B1: β-catenin (endogenous zebrafish) (protein, UniProt F1QGH7 1-780)
chain: T3 sequence
As to B1, the binding entry in assay [2] and in assay [3] was “binds” in each case.

B2: Nkd1^myc (zebrafish Naked Cuticle homolog 1, C-terminal myc tag) (protein, UniProt Q2TJA6 1-440)
chain: T2 sequence
As to B2, in assay [4], the binding entry is on record as “binds”.

B3: Nkd1^G2A-myc (zebrafish Nkd1, glycine 2 to alanine, C-terminal myc tag) (protein, UniProt Q2TJA6 1-440)
chain: T2 sequence with G2A
Consider B3, for which the binding entry in assay [4] is listed as “binds weakly”.
